The target in this test is FNDC3B Δ1~4 mutant (deletion of FNIII domains 1-4) (human) (UniProt Q53EP0). Put plainly: affinity purification with mass spectrometry; co-IP of wild type FNDC3B and Δ1~4 mutant; differentially bound protein bands picked from SDS-PAGE, in-gel digestion, LC-MS/MS.

Protein sequences, listed by entry. Tags and fused reporters are not part of them. Lines headed by an entry give the natural chain unless they say otherwise; changes in a name come on top.
UniProt Q53EP0: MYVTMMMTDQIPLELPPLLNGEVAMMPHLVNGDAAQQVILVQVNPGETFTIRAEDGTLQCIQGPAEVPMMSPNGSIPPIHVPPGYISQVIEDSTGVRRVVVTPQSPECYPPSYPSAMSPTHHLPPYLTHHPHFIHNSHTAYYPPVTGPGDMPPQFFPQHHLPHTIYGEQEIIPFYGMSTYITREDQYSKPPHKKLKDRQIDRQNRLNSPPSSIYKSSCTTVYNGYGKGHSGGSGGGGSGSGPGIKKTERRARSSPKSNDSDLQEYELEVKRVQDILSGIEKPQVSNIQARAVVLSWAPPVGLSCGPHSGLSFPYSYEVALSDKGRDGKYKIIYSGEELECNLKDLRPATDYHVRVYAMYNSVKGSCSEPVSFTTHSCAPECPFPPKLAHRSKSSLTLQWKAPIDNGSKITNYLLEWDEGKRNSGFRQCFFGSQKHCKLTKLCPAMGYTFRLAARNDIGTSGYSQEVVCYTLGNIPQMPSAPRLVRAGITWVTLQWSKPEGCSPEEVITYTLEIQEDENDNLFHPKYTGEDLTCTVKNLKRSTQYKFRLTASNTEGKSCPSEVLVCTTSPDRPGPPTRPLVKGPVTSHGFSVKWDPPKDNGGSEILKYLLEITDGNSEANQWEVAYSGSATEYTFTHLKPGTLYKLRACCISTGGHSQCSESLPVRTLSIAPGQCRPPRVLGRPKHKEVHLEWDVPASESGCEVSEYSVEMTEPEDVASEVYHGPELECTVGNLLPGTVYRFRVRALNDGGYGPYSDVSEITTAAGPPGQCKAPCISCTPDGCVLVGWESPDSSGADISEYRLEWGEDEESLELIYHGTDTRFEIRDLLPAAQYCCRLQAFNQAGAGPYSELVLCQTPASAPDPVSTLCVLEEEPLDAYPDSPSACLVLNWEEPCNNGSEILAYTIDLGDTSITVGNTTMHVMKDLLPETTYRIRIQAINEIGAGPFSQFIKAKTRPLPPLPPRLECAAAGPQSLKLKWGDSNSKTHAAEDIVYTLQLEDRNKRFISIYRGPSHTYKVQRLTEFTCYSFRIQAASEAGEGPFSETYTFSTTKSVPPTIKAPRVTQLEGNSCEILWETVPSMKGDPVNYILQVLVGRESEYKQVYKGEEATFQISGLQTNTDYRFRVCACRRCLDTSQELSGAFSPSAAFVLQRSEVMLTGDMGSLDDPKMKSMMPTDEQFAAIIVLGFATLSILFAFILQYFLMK
UniProt P07355: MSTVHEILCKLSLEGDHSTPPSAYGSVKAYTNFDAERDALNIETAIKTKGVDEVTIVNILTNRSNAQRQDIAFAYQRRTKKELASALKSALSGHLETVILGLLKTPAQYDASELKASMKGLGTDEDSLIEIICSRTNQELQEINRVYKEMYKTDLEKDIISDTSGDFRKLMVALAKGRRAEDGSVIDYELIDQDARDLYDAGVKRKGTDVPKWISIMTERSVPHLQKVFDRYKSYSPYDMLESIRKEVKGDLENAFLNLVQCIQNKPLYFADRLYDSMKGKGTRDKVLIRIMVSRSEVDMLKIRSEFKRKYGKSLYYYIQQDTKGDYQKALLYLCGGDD

The results in this text go back to PMC5226524.

These are yes or no findings as the source states them, for the method shown. In cells and extracts the contact can be indirect. Here binding means that the protein was enriched with, or labelled near, the bait; the list need not be complete. No binding means not detected with the bait.

“annexin A2 (ANXA2) (from UniProt P07355 1-339)”: the binding entry was “no binding”.
